# Laboratory results reported in PubChem BioAssay AID248 (DTP/NCI, 2004).
# The list is a part of this screen's results and no random one: it gathers tests that were run many times, whatever their T/C, doses with no T/C, and many T/C values between a quarter and a half above the control. Other doses and runs of a compound stand elsewhere. T/C gives the treated animals as a percentage of the vehicle group. Some doses have a count of surviving animals in place of a T/C: the source files T/C as zero there, which appears to mark a toxic dose or a test without result, not a measured value. Some doses without a T/C left all or most animals alive at the check, yet need not have been tolerated: the source hardly ever lists a survival T/C far under the control, and the zero likely stands for such cases as well. Survivors were counted at the toxicity check, usually on the fifth day, unless a day is given; later deaths do not show. Schedules are NCI's codes, read here as Q, the interval in days (D) or hours (H), X, the number of doses. Some doses were run more than once; their values stand side by side, smallest first. Where survival is the endpoint, this PubChem deposit counts one and a half times the control or more as active, and values a quarter to a half above the control carry no call in these data; other NCI protocols may use other cut-offs. Additions like (4×) count equal records among those shown. Some schedule codes hold Z or #, which are not explained here. Some T/C values carry the count of animals alive at the toxicity check (mostly the fifth day); without a count, all were alive then.
# System: L1210 leukemia ip in BDF1 mice, survival T/C
# Test: NCI In Vivo Anticancer Drug Screen. Data for tumor model L1210 Leukemia (intraperitoneal) in B6D2F1 (BDF1) mice
# Conditions: T/C endpoint: mean survival time, higher T/C = longer survival
# [1] = dose: 100.0 mg/kg/injection, schedule: Q01DX005 (ip), vehicle: saline
# [2] = dose: 200.0 mg/kg/injection, schedule: Q01DX005 (ip), vehicle: saline
# [3] = dose: 200.0 mg/kg/injection, schedule: Q01DX001 (ip), vehicle: saline
# [4] = dose: 400.0 mg/kg/injection, schedule: Q01DX001 (ip), vehicle: saline
# [5] = dose: 400.0 mg/kg/injection, schedule: Q01DX009 (ip), vehicle: Klucel (hydroxypropylcellulose) (HPC)
# [6] = dose: 400.0 mg/kg/injection, schedule: Q04DX003 (ip), vehicle: saline
# [7] = dose: 200.0 mg/kg/injection, schedule: Q01DX001 (ip), vehicle: carboxymethylcellulose (CMC)
# [8] = dose: 400.0 mg/kg/injection, schedule: Q01DX001 (ip), vehicle: carboxymethylcellulose (CMC)
# [9] = dose: 400.0 mg/kg/injection, schedule: Q04DX002 (ip), vehicle: saline with Tween-80
# [10] = dose: 400.0 mg/kg/injection, schedule: Q01DX009 (ip), vehicle: saline with Tween-80
# [11] = dose: 100.0 mg/kg/injection, schedule: Q04DX002 (ip), vehicle: saline with Tween-80
# [12] = dose: 200.0 mg/kg/injection, schedule: Q01DX009 (ip), vehicle: saline with Tween-80
compound,measurement,setting,value
CN(C)/C=N\c1ncnc2c1c(C#N)cn2C1OC(CO)C(O)C1O (configuration not stated),survivor count,"dose: 50.0 mg/kg/injection, schedule: Q01DX005 (ip), vehicle: saline",6 of 6
same,survivor count,[1],0 of 6
same,survivor count,[2],0 of 6
COc1cc(OC(C)=O)c2ncccc2c1OC(C)=O,survivor count,[3],2 of 4
same,survivor count,[4],0 of 4
O=S(=O)(C(Cl)Cl)C(Cl)(Cl)S(=O)(=O)C(Cl)Cl,survivor count,"dose: 200.0 mg/kg/injection, schedule: Q01DX009 (ip), vehicle: Klucel (hydroxypropylcellulose) (HPC)",2 of 6
same,survivor count,[5],0 of 6
CC1C2CCC(C2)C1N (configuration not stated),survivor count,"dose: 200.0 mg/kg/injection, schedule: Q04DX003 (ip), vehicle: saline",3 of 6
same,survivor count,[6],0 of 6 and 3 of 6
CCN(CC)CCc1ccccn1,survivor count,"dose: 100.0 mg/kg/injection, schedule: Q04DX003 (ip), vehicle: saline",2 of 6
CC(=O)OCCC/C(=C\c1ccccc1)[N+](=O)[O-],survivor count,[3],2 of 4
same,survivor count,[4],0 of 4
CC(C)n1ncc2c(N)ncnc21,survivor count,"dose: 60.0 mg/kg/injection, schedule: Q01DX001 (ip), vehicle: saline",0 of 6
CC12CC3CC(C)(C1)CC(N)(C3)C2,survivor count,"dose: 100.0 mg/kg/injection, schedule: Q01DX001 (ip), vehicle: carboxymethylcellulose (CMC)",2 of 4
same,survivor count,[7],0 of 4
same,survivor count,[8],0 of 4
O=C1CC(N2CCCCC2)C(=O)N1c1ccccc1 (configuration not stated),survivor count,[9],3 of 3
CCOC(=O)NO,T/C,"dose: 200.0 mg/kg/injection, schedule: Q01DX Z (ip), vehicle: carboxymethylcellulose (CMC)",140 % of control
same,T/C,"dose: 270.0 mg/kg/injection, schedule: Q01DX009 (ip), vehicle: saline",128 % of control
same,T/C,"dose: 400.0 mg/kg/injection, schedule: Q01DX009 (ip), vehicle: saline",138 % of control
same,T/C,"dose: 400.0 mg/kg/injection, schedule: Q01DX Z (ip), vehicle: carboxymethylcellulose (CMC)",140 % of control
same,T/C,"dose: 900.0 mg/kg/injection, schedule: Q01DX009 (ip), vehicle: saline",128 % of control
Nc1nc([Se]Cc2ccc([N+](=O)[O-])cc2)c2ncn(C3OC(CO)C(O)C3O)c2n1 (configuration not stated),T/C,[1],147 % of control [4 of 6 alive]
same,survivor count,[2],2 of 6
COC1=C(Cl)C(=O)C(OC)=C(Cl)C1=O,survivor count,"dose: 80.0 mg/kg/injection, schedule: Q01DX001 (ip), vehicle: saline",0 of 6
same,survivor count,"dose: 100.0 mg/kg/injection, schedule: Q01DX001 (ip), vehicle: saline",0 of 4
same,survivor count,[3],0 of 4
same,survivor count,[4],0 of 4
Cc1ccccc1NC=O,survivor count,[10],6 of 6
CCCCN1CCN2C(=O)N(CC)CCC2C1 (configuration not stated),survivor count,[3],0 of 6
same,survivor count,[4],0 of 6
Nc1nc2ncc(CNc3ccc(C(=O)NC(CCC(=O)O)C(=O)O)cc3)nc2c(=O)[nH]1 (configuration not stated),survivor count,"dose: 200.0 mg/kg/injection, schedule: Q04DX002 (ip), vehicle: saline with Tween-80",1 of 3
same,survivor count,[9],0 of 6 and 1 of 3
NC(=O)C1(Nc2ccc(-c3ccc(Br)cc3)cc2)CCCC1,survivor count,[7],3 of 4
CCCCCCC(=O)OCCN1CCN(CC/C=C2\c3ccccc3Sc3ccc(C(F)(F)F)cc32)CC1,T/C,"dose: 200.0 mg/kg/injection, schedule: Q01DX009 (ip), vehicle: saline",125 % of control
same,survivor count,"dose: 300.0 mg/kg/injection, schedule: Q01DX009 (ip), vehicle: saline",6 of 6
same,T/C,"dose: 300.0 mg/kg/injection, schedule: Q04DX003 (ip), vehicle: saline",144 % of control [4 of 6 alive]
NC(=O)c1ccc(OC(F)(F)C(F)Cl)cc1OC(F)(F)C(F)Cl (configuration not stated),survivor count,"dose: 200.0 mg/kg/injection, schedule: Q04DX003 (ip), vehicle: saline with Tween-80",0 of 6
Cc1ccc(NC(=S)NC(=O)/C=C/c2ccccc2)cc1Cl,survivor count,"dose: 50.0 mg/kg/injection, schedule: Q01DX009 (ip), vehicle: saline with Tween-80",6 of 6
same,T/C,"dose: 100.0 mg/kg/injection, schedule: Q01DX009 (ip), vehicle: saline with Tween-80","91, 92, 93, 97 % of control (2×)"
same,survivor count,[11],6 of 6
same,T/C,[12],"90, 95, 103 % of control"
same,survivor count,[12],4 of 6
same,survivor count,"dose: 400.0 mg/kg/injection, schedule: Q01DX001 (ip), vehicle: saline with Tween-80",6 of 6
same,T/C,[10],"90, 92 (2×), 98 % of control"
Cc1ccc(S(=O)(=O)OCC2C(c3ccccc3)CCC(c3ccccc3)C2COS(=O)(=O)c2ccc(C)cc2)cc1 (configuration not stated),survivor count,[5],6 of 6
C/C=C/C[P+](c1ccccc1)(c1ccccc1)c1cccc2ccccc12,survivor count,"dose: 50.0 mg/kg/injection, schedule: Q04DX002 (ip), vehicle: saline with Tween-80",3 of 3
same,survivor count,[11],0 of 3
CCOC(=O)C(C)CC(=O)c1ccccc1 (configuration not stated),survivor count,[12],0 of 6
same,survivor count,[9],2 of 3
CCN(Cc1ccccc1)C(=O)NC(C)(C)C,survivor count,[5],3 of 6
COc1c(C)c(C)c(OC(C)=O)c(C)c1COC(C)=O,survivor count,[12],2 of 6
same,survivor count,[10],1 of 6
O=C(NC1CCCC1)c1ccc(C(=O)NC2CCCC2)cc1,survivor count,[4],1 of 4
COC1=CC=C2C3Cc4ccc(OC)c(O)c4C2(C1)CN3C (configuration not stated),survivor count,"dose: 150.0 mg/kg/injection, schedule: Q01DX009 (ip), vehicle: Klucel (hydroxypropylcellulose) (HPC)",1 of 6
same,survivor count,"dose: 200.0 mg/kg/injection, schedule: Q04DX003 (ip), vehicle: other",1 of 6
same,survivor count,"dose: 225.0 mg/kg/injection, schedule: Q01DX009 (ip), vehicle: Klucel (hydroxypropylcellulose) (HPC)",3 of 6
same,survivor count,"dose: 335.0 mg/kg/injection, schedule: Q01DX009 (ip), vehicle: Klucel (hydroxypropylcellulose) (HPC)",0 of 6
same,survivor count,"dose: 400.0 mg/kg/injection, schedule: Q04DX003 (ip), vehicle: other",0 of 6
COc1ccc(/C=N/n2c3ccccc3c3ccccc32)cc1OCCCN(C)C,survivor count,"dose: 12.5 mg/kg/injection, schedule: Q01DX009 (ip), vehicle: saline",6 of 6
same,survivor count,"dose: 25.0 mg/kg/injection, schedule: Q01DX009 (ip), vehicle: saline",6 of 6
same,survivor count,"dose: 50.0 mg/kg/injection, schedule: Q01DX009 (ip), vehicle: saline",0 of 6
same,survivor count,"dose: 100.0 mg/kg/injection, schedule: Q04DX003 (ip), vehicle: alcohol",2 of 4
same,survivor count,"dose: 200.0 mg/kg/injection, schedule: Q04DX003 (ip), vehicle: alcohol",0 of 4
same,survivor count,"dose: 400.0 mg/kg/injection, schedule: Q04DX003 (ip), vehicle: alcohol",0 of 4
O=CCC1C=CCC1 (configuration not stated),survivor count,"dose: 300.0 mg/kg/injection, schedule: Q01DX001 (ip), vehicle: carboxymethylcellulose (CMC)",0 of 6
CC(C)C1CCC(N)CC1 (configuration not stated),survivor count,"dose: 150.0 mg/kg/injection, schedule: Q01DX001 (ip), vehicle: saline",0 of 6
same,survivor count,"dose: 300.0 mg/kg/injection, schedule: Q01DX001 (ip), vehicle: saline",0 of 6
Oc1ccc(Cl)cc1/C=N\NC(=S)Nc1ccc2cn[nH]c2c1,survivor count,[8],0 of 4
COc1ccc(-c2c(O)c3cccc(-c4ccccc4)c3oc2=O)cc1,survivor count,[6],0 of 3
N#CSCN1C(=O)C2CC=CCC2C1=O (configuration not stated),survivor count,"dose: 50.0 mg/kg/injection, schedule: Q04DX003 (ip), vehicle: saline with Tween-80",2 of 6
same,survivor count,"dose: 100.0 mg/kg/injection, schedule: Q04DX003 (ip), vehicle: saline with Tween-80",0 of 6
